Reference: PubChem BioAssay AID1259254 (NCATS, 2017)

- Assay: 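Genome-wide screen for genes that prevent DNA re-replication in cancer cells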 (primary screen)
- Cell system: human HCT116 colorectal cancer cells
- Reagents: single siRNA against human genes
- Time to read-out: 3 days
- Measurement: 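Imaged Hoechst DNA stain sorts each cell into a cycle phase by DNA amount; per plate, G2 fraction set to 0% for non-targeting and 100% for GMNN siRNA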
- Scale: G2 robust z-score and G2 cells, % of GMNN control: higher = more G2 cells, more excess DNA replication; raw share of cells in G2: higher = larger share of cells with G2 DNA content
- Rule for the call: 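Active siRNAs have a G2 robust z of 5 or more median absolute deviations over the median, which in these data means about 38% or higher of GMNN control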
Here is an unselected part of about 59,000 reagents tested. Over the whole deposit, about 1,550 (2.6%) are marked active. 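G2 share is only a proxy for re-replication; each gene was hit by three separate siRNAs, and active genes were retested.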 Raw values are not corrected between plates. Entries without a mark were called inactive. The numbers tell different reagents against one gene apart. The record does not give: the amount of reagent.

gene | reagent | G2 robust z-score | G2 cells, % of GMNN control | raw share of cells in G2 (%)
CHRNA4 (GeneID 1137) | 1 | 3.22 | 25.6 | 14.6
CHRNA4 (GeneID 1137) | 2 | 1.24 | 11.7 | 8.74
CHRNA4 (GeneID 1137) | 3 | 0.306 | 5.12 | 6.37
HTATSF1P2 (GeneID 401233) | 1 | -0.276 | 1.02 | 4.18
HTATSF1P2 (GeneID 401233) | 2 | -1.26 | -5.9 | 1.18
HTATSF1P2 (GeneID 401233) | 3 | 1.52 | 13.7 | 10.5
FRRS1 (GeneID 391059) | 1 | 1.57 | 14 | 10.4
FRRS1 (GeneID 391059) | 2 | -0.534 | -0.79 | 4
FRRS1 (GeneID 391059) | 3 | -0.623 | -1.41 | 5.29
ZNF66 (GeneID 7617) | 1 | -0.608 | -1.31 | 4.55
ZNF66 (GeneID 7617) | 2 | 2.44 | 20.2 | 11.9
ZNF66 (GeneID 7617) | 3 | 0.493 | 6.44 | 5.62
BTBD6 (GeneID 90135) | 1 | -0.121 | 2.12 | 4.98
BTBD6 (GeneID 90135) | 2 | -0.703 | -1.98 | 2.38
BTBD6 (GeneID 90135) | 3 | 4.3 | 33.2 | 13.5
CIRBP (GeneID 1153) | 1 | -0.224 | 1.39 | 4.57
CIRBP (GeneID 1153) | 2 | -0.994 | -4.03 | 3.52
CIRBP (GeneID 1153) | 3 | 1.46 | 13.2 | 9.68
PPP1R17 (GeneID 10842) | 1 | 0.257 | 4.78 | 6.86
PPP1R17 (GeneID 10842) | 2 | -0.314 | 0.759 | 4.45
PPP1R17 (GeneID 10842) | 3 | 0.452 | 6.15 | 5.47

Only “G2 cells, % of GMNN control”, for 6 of the entries above:
FRRS1 (GeneID 391059) #2: -0.79
FRRS1 (GeneID 391059) #3: -1.41
ZNF66 (GeneID 7617) #1: -1.31
ZNF66 (GeneID 7617) #2: 20.2
ZNF66 (GeneID 7617) #3: 6.44
BTBD6 (GeneID 90135) #1: 2.12

The results go on:
gene | reagent | G2 robust z-score | G2 cells, % of GMNN control | raw share of cells in G2 (%)
DHX30 (GeneID 22907) | 1 | -1.07 | -4.6 | 2.62
DHX30 (GeneID 22907) | 2 | -0.131 | 2.05 | 4.57
DHX30 (GeneID 22907) | 3 | -0.71 | -2.03 | 5.56
RUVBL2 (GeneID 10856) | 1 | 3.6 | 28.3 | 18
RUVBL2 (GeneID 10856) | 2 | 2.14 | 18.1 | 9.68
RUVBL2 (GeneID 10856) | 3 | -0.223 | 1.4 | 7.03
RAD51C (GeneID 5889) | 1 | -1.11 | -4.88 | 2.82
RAD51C (GeneID 5889) | 2 | -0.517 | -0.667 | 3.92
RAD51C (GeneID 5889) | 3 | 2.35 | 19.5 | 11.7
FMO3 (GeneID 2328) | 1 | 0.568 | 6.97 | 7.77
FMO3 (GeneID 2328) | 2 | 2.51 | 20.6 | 13.1
FMO3 (GeneID 2328) | 3 | -0.265 | 1.11 | 4.05
CHD4 (GeneID 1108) | 1 | 0.0511 | 3.33 | 6.15
CHD4 (GeneID 1108) | 2 | -0.991 | -4.01 | 3.53
CHD4 (GeneID 1108) | 3 | 0.238 | 4.64 | 5.69
SLC5A7 (GeneID 60482) | 1 | -0.49 | -0.482 | 5.45
SLC5A7 (GeneID 60482) | 2 | -1.12 | -4.92 | 2.44
SLC5A7 (GeneID 60482) | 3 | 0.114 | 3.77 | 5.68
SYNGR4 (GeneID 23546) | 1 | 4.63 | 35.6 | 17.8
SYNGR4 (GeneID 23546) | 2 | -0.392 | 0.208 | 4.03
SYNGR4 (GeneID 23546) | 3 | 1.2 | 11.4 | 7.29
DUSP5 (GeneID 1847) | 1 | -0.3 | 0.859 | 5.07
DUSP5 (GeneID 1847) | 2 | 2.25 | 18.8 | 9.97
DUSP5 (GeneID 1847) | 3 | 0.776 | 8.43 | 6.03
ZNF626 (GeneID 199777) | 1 | 0.156 | 4.07 | 6.41
ZNF626 (GeneID 199777) | 2 | -1.32 | -6.33 | 2.94
ZNF626 (GeneID 199777) | 3 | 2.98 | 23.9 | 13.4
